Experimental data taken from the supplement of paper PMC8728848.
The list shows a part of the results.

Legend:
Assay in all cases: glycan array binding signal (z-score within array); higher = stronger binding
Settings in all cases: glycan notation: IUPAC condensed, linker removed; mutation: R201A
[1] = target: Fuc(a1-2)[GalNAc(a1-3)]Gal(b1-3)GlcNAc(b1-3)GalNAc
In short: (§1)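 Columns mapping to the same glycan were averaged after glycan names were converted to IUPAC-condensed notation. The data come from 3228 arrays in the Consortium for Functional Glycomics database, limited to those with an available protein sequence. Binding is reported as a within-array Z-score averaged across arrays of one protein sequence and across linkers.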

[2] = target: Fuc(a1-2)[GalNAc(a1-3)]Gal(b1-3)GlcNAc(b1-6)GalNAc
In short: as §1

[3] = target: Fuc(a1-2)[GalNAc(a1-3)]Gal(b1-4)Glc
In short: as §1

[4] = target: Fuc(a1-2)[GalNAc(a1-3)]Gal(b1-4)GlcNAc
In short: as §1

[5] = target: Fuc(a1-2)[GalNAc(a1-3)]Gal(b1-4)GlcNAc(b1-2)Man
In short: as §1

[6] = target: Fuc(a1-2)[GalNAc(a1-3)]Gal(b1-4)GlcNAc(b1-2)Man(a1-3)[Fuc(a1-2)[GalNAc(a1-3)]Gal(b1-4)GlcNAc(b1-2)Man(a1-6)]Man(b1-4)GlcNAc(b1-4)GlcNAc
In short: as §1

[7] = target: Fuc(a1-2)[GalNAc(a1-3)]Gal(b1-4)GlcNAc(b1-2)Man(a1-3)[Fuc(a1-2)[GalNAc(a1-3)]Gal(b1-4)GlcNAc(b1-2)Man(a1-6)]Man(b1-4)GlcNAc(b1-4)[Fuc(a1-6)]GlcNAc
In short: as §1

[8] = target: Fuc(a1-2)[GalNAc(a1-3)]Gal(b1-4)GlcNAc(b1-3)Gal(b1-4)GlcNAc
In short: as §1

[9] = target: Fuc(a1-2)[GalNAc(a1-3)]Gal(b1-4)GlcNAc(b1-3)Gal(b1-4)GlcNAc(b1-3)Gal(b1-4)GlcNAc
In short: as §1

[10] = target: Fuc(a1-2)[GalNAc(a1-3)]Gal(b1-4)GlcNAc(b1-3)GalNAc
In short: as §1

[11] = target: Fuc(a1-2)[GalNAc(a1-3)]Gal(b1-4)GlcNAc(b1-3)[Fuc(a1-2)[GalNAc(a1-3)]Gal(b1-4)GlcNAc(b1-6)]GalNAc
In short: as §1

[12] = target: Fuc(a1-2)[GalNAc(a1-3)]Gal(b1-4)GlcNAc(b1-6)GalNAc
In short: as §1

[13] = target: Fuc(a1-2)[GalNAc(a1-3)]Gal(b1-4)[Fuc(a1-3)]GlcNAc
In short: as §1

[14] = target: Fuc(a1-2)[GalNAc(a1-3)]Gal(b1-4)[Fuc(a1-3)]GlcNAc(b1-3)GalNAc
In short: as §1

[15] = target: Fuc(a1-2)[GalNAc(a1-4)]Gal(b1-4)GlcNAc
In short: as §1

[16] = target: Fuc(a1-2)[GalNAc(b1-3)]Gal
In short: as §1

[17] = target: Fuc(a1-3)GlcNAc
In short: as §1

[18] = target: Fuc(a1-3)[Gal(b1-4)]Glc6S
In short: as §1

[19] = target: Fuc(a1-3)[Gal(b1-4)]GlcNAc
In short: as §1

[20] = target: Fuc(a1-3)[Gal(b1-4)]GlcNAc(b1-2)Man
In short: as §1

[21] = target: Fuc(a1-3)[Gal(b1-4)]GlcNAc(b1-2)Man(a1-3)[Fuc(a1-3)[Gal(b1-4)]GlcNAc(b1-2)Man(a1-6)]Man(b1-4)GlcNAc(b1-4)GlcNAc
In short: as §1

[22] = target: Fuc(a1-3)[Gal(b1-4)]GlcNAc(b1-2)Man(a1-3)[Fuc(a1-3)[Gal(b1-4)]GlcNAc(b1-2)Man(a1-6)]Man(b1-4)GlcNAc(b1-4)[Fuc(a1-6)]GlcNAc
In short: as §1

[23] = target: Fuc(a1-3)[Gal(b1-4)]GlcNAc(b1-3)Gal(b1-3)[Fuc(a1-4)]GlcNAc
In short: as §1

[24] = target: Fuc(a1-3)[Gal(b1-4)]GlcNAc(b1-3)Gal(b1-4)[Fuc(a1-3)]GlcNAc
In short: as §1

[25] = target: Fuc(a1-3)[Gal(b1-4)]GlcNAc(b1-3)Gal(b1-4)[Fuc(a1-3)]GlcNAc(b1-3)Gal(b1-4)[Fuc(a1-3)]GlcNAc
In short: as §1

[26] = target: Fuc(a1-3)[Gal(b1-4)]GlcNAc(b1-3)GalNAc
In short: as §1

[27] = target: Fuc(a1-3)[Gal(b1-4)]GlcNAc(b1-6)GalNAc
In short: as §1

[28] = target: Fuc(a1-3)[Gal(b1-4)]GlcNAc(b1-6)[Gal(b1-3)GlcNAc(b1-3)]Gal(b1-4)Glc
In short: as §1

[29] = target: Fuc(a1-3)[Gal(b1-4)]GlcNAc6S
In short: as §1

[30] = target: Fuc(a1-3)[Gal3S(b1-4)]Glc
In short: as §1

[31] = target: Fuc(a1-3)[Gal3S(b1-4)]GlcNAc
In short: as §1

[32] = target: Fuc(a1-3)[Gal3S(b1-4)]GlcNAc6S
In short: as §1

[33] = target: Fuc(a1-3)[GalNAc(b1-4)]GlcNAc
In short: as §1

[34] = target: Fuc(a1-3)[GalNAc(b1-4)]GlcNAc6S
In short: as §1

[35] = target: Fuc(a1-4)GlcNAc
In short: as §1

[36] = target: Fuc(b1-3)GlcNAc
In short: as §1

[37] = target: Gal(a1-2)Gal
In short: as §1

B1: OS9 (Arabidopsis thaliana) (protein)
chain: MRGSHHHHHHGMASMTGGQQMGRDLYDDDDKSRLQIFPAHLVGTFSRNNREPKYKIEFLPEDSPFHPGDNLESMVMLDKHGNRFLCYLPKEEKATSGWTSSQQNISTVMMETQQLVKLKTPDELLQPLSEKCLFRQEGWWSYEFCHQKYVRQLHVEDENKIVQEFFLGTFDPEATAAFNQTVSDASTDASQRYHSHVYTNGTTCDLTGSPAEVEVRFVCAETRAMVTSITELSTCKYALTVQCPTLCKHPLFQLEKPVSHTIHCNAIPVEEDATRNKEEQAVDESPKMIADS
Question: Which “glycan array binding signal (z-score)” value [1] does the source give for B1 here?
Answer: -0.027

Question: And the “glycan array binding signal (z-score)” value [2]?
Answer: -0.314

Question: What about the “glycan array binding signal (z-score)” value [3] of the same binder?
Answer: 0.109

Question: What about the “glycan array binding signal (z-score)” value [4] of the same binder?
Answer: -0.356

Question: And the “glycan array binding signal (z-score)” value [5]?
Answer: 0.105

Question: What about the “glycan array binding signal (z-score)” value [6] of the same binder?
Answer: 1.51

Question: And the “glycan array binding signal (z-score)” value [7]?
Answer: -0.739

Question: What about the “glycan array binding signal (z-score)” value [8] of the same binder?
Answer: -0.887

Question: And the “glycan array binding signal (z-score)” value [9]?
Answer: 2.49

Question: And the “glycan array binding signal (z-score)” value [10]?
Answer: -0.487

Question: What about the “glycan array binding signal (z-score)” value [11] of the same binder?
Answer: 0.058

Question: What about the “glycan array binding signal (z-score)” value [12] of the same binder?
Answer: -1.09

Question: And the “glycan array binding signal (z-score)” value [13]?
Answer: 1.98

Question: And the “glycan array binding signal (z-score)” value [14]?
Answer: -0.406

Question: What about the “glycan array binding signal (z-score)” value [15] of the same binder?
Answer: -0.156

Question: And the “glycan array binding signal (z-score)” value [16]?
Answer: -0.349

Question: What about the “glycan array binding signal (z-score)” value [17] of the same binder?
Answer: -0.457

Question: And the “glycan array binding signal (z-score)” value [18]?
Answer: -0.113

Question: What about the “glycan array binding signal (z-score)” value [19] of the same binder?
Answer: -0.184

Question: What about the “glycan array binding signal (z-score)” value [20] of the same binder?
Answer: -0.154

Question: And the “glycan array binding signal (z-score)” value [21]?
Answer: -1.38

Question: And the “glycan array binding signal (z-score)” value [22]?
Answer: 3.48

Question: And the “glycan array binding signal (z-score)” value [23]?
Answer: 0.176

Question: What about the “glycan array binding signal (z-score)” value [24] of the same binder?
Answer: 0.261

Question: And the “glycan array binding signal (z-score)” value [25]?
Answer: 0.538

Question: And the “glycan array binding signal (z-score)” value [26]?
Answer: -0.955

Question: What about the “glycan array binding signal (z-score)” value [27] of the same binder?
Answer: 1.02

Question: And the “glycan array binding signal (z-score)” value [28]?
Answer: 0.467

Question: And the “glycan array binding signal (z-score)” value [29]?
Answer: -0.678

Question: And the “glycan array binding signal (z-score)” value [30]?
Answer: -0.61

Question: And the “glycan array binding signal (z-score)” value [31]?
Answer: 0.043

Question: And the “glycan array binding signal (z-score)” value [32]?
Answer: -0.151

Question: And the “glycan array binding signal (z-score)” value [33]?
Answer: 0.67

Question: What about the “glycan array binding signal (z-score)” value [34] of the same binder?
Answer: -0.68

Question: And the “glycan array binding signal (z-score)” value [35]?
Answer: 2.18

Question: What about the “glycan array binding signal (z-score)” value [36] of the same binder?
Answer: 0.293

Question: What about the “glycan array binding signal (z-score)” value [37] of the same binder?
Answer: 0.805
